Test results taken from paper PMC8516944.
These are yes or no findings as the source states them, for the method shown. Binding seen in cells or lysates may run through a third protein. Binding calls can cover weak binding; strength is not graded here.

Biological target: T1, AFP in the culture supernatant of HepG2 cells stably overexpressing GP73 (human (endogenous in HepG2)) (UniProt P02771)
T1 sequence: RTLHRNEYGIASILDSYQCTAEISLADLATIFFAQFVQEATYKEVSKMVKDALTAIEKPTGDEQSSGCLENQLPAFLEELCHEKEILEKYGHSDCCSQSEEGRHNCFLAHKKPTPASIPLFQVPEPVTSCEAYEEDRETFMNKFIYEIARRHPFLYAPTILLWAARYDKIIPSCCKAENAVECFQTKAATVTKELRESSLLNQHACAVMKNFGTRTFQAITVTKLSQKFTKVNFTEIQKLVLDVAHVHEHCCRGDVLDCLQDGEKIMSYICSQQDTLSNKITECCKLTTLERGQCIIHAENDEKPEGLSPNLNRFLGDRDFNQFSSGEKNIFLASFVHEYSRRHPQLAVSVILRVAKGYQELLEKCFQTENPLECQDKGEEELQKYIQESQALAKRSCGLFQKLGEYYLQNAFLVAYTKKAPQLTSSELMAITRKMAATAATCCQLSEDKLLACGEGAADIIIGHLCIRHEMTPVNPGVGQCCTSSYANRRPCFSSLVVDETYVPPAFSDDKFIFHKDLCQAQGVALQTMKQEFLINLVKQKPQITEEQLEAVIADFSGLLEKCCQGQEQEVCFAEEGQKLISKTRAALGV
Assay: co-IP; cell culture supernatant of HepG2 cells stably overexpressing GP73 (GP73-OE-SP)

binding: binds
Substance: GP73 in the culture supernatant of HepG2 cells stably overexpressing GP73 (GP73-OE-SP)
